Results are given in words; binding and its absence hold for the method and conditions named. In cells and extracts the contact can be indirect. A yes stands for co-enrichment or nearness to the bait. Other partners may have been found. Sequences can lack the tags named with a protein.
T1: Flag-USP13 (ubiquitin-specific peptidase 13), expressed in NCM460 cells (not stated (human or mouse cDNA cloned)) (UniProt Q92995)
T1 sequence: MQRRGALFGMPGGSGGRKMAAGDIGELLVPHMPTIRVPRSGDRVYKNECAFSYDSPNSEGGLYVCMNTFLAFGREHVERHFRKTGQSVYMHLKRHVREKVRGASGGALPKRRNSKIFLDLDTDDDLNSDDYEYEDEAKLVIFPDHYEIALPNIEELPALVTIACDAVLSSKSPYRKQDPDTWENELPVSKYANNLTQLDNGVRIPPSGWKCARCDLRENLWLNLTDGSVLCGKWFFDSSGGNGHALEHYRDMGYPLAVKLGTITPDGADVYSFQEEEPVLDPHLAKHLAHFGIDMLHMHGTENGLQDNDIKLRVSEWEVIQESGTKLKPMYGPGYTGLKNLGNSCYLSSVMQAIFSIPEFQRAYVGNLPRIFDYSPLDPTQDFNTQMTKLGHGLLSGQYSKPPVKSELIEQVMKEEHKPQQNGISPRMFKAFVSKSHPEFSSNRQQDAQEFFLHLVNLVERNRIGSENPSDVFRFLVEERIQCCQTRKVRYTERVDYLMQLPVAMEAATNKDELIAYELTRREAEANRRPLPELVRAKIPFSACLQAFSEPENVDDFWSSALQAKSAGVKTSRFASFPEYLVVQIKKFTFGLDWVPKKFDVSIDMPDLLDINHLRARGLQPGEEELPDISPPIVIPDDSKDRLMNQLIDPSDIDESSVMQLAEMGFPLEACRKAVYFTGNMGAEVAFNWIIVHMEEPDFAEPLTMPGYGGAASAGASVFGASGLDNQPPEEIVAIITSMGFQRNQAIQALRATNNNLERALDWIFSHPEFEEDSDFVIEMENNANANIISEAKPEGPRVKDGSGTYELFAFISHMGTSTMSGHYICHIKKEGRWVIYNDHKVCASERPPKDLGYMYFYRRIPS

The chains behind the UniProt entries cited, without tags or fusion partners. Residues count along the entry.
UniProt P11021, residues 19-654: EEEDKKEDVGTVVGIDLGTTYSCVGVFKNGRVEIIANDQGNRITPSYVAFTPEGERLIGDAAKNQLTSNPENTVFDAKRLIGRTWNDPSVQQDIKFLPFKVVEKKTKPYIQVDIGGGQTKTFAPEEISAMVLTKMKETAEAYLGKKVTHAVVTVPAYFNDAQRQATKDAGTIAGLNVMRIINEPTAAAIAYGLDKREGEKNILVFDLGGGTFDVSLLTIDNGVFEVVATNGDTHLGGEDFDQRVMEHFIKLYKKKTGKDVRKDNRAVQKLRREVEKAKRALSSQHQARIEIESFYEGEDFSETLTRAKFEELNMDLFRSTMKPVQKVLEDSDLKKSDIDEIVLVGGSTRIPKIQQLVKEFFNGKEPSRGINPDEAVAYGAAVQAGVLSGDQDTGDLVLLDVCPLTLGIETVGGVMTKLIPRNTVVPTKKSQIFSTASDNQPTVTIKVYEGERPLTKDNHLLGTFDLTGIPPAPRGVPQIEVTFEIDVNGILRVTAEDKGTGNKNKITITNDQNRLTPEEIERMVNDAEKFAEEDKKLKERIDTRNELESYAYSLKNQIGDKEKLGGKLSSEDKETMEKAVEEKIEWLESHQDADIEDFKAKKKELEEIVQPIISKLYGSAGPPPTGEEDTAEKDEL
UniProt P20029, residues 20-655: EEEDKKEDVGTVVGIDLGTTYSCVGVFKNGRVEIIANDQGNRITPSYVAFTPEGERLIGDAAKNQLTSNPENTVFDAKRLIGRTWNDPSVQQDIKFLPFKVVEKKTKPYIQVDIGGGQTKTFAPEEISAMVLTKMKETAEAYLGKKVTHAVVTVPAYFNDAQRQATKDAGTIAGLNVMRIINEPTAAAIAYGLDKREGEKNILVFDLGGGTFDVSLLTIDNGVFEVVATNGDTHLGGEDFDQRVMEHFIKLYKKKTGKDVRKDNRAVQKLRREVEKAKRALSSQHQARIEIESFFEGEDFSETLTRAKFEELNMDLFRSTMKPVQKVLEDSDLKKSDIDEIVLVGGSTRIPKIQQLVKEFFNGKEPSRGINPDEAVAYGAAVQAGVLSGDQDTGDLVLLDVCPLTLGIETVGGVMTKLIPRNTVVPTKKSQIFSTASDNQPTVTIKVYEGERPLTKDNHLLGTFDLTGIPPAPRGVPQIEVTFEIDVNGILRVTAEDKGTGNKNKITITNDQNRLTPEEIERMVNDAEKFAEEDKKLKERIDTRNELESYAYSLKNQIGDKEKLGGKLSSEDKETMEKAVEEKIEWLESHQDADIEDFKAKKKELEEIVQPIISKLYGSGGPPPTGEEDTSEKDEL
UniProt Q9NS69: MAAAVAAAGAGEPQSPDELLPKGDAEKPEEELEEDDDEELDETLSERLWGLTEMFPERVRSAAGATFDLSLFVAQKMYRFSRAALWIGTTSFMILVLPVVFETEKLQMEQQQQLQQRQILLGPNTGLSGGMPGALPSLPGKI

T2: Flag-USP13 (ubiquitin-specific peptidase 13), expressed in MODE-K cells (not stated (human or mouse cDNA cloned)) (UniProt Q5BKP2)
T2 sequence: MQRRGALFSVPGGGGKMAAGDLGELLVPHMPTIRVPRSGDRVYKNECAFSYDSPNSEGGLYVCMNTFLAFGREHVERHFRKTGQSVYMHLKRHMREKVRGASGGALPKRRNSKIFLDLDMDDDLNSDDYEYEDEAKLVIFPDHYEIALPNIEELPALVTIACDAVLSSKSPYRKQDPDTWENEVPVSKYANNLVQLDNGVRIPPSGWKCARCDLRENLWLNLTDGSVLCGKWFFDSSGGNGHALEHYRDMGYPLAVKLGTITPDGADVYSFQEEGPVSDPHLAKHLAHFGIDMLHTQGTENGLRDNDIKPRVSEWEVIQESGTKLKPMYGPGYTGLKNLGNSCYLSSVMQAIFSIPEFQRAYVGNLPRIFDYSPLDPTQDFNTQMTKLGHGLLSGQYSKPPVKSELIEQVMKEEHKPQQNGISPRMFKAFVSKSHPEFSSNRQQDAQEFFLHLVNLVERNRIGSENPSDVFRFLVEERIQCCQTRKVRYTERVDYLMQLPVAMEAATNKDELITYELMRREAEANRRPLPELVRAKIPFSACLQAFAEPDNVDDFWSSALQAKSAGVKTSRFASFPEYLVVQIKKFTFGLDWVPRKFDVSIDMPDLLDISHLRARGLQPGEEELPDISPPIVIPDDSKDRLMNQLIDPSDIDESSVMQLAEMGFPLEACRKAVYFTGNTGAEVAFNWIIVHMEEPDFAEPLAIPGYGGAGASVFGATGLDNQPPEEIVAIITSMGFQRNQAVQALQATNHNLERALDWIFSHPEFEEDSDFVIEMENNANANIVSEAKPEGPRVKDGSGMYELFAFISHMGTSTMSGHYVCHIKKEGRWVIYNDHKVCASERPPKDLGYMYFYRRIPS


How the values were obtained:
[1] = target: T1, Flag-USP13 (ubiquitin-specific peptidase 13), expressed in NCM460 cells (not stated (human or mouse cDNA cloned)); experiment: affinity purification with mass spectrometry; Dataset I: NCM460 cells transfected with Flag-vector or Flag-USP13, LPS (5 µg/mL); anti-Flag and protein G-Sepharose beads on cell lysates; LC-MS/MS of bound proteins
[2] = target: T2, Flag-USP13 (ubiquitin-specific peptidase 13), expressed in MODE-K cells (not stated (human or mouse cDNA cloned)); experiment: affinity purification with mass spectrometry; Dataset II: MODE-K cells transfected with Flag-vector or Flag-USP13, LPS (5 µg/mL); anti-Flag and protein G-Sepharose beads on cell lysates; LC-MS/MS of bound proteins

Molecule | binding [1] | binding [2]
glucose-regulated protein 78 (GRP78), endogenous in NCM460 cells (from UniProt P11021 19-654) | binds | –
TOMM22, endogenous in MODE-K cells (protein, UniProt Q9CPQ3 1-142) MAAAVAAAGAGEPLSPEELLPKAEAEKAEEELEEDDDDELDETLSERLWGLTEMFPERVRSAAGATFDLSLFVAQKMYRFSRAALWIGTTSFMILVLPVVFETEKLQMEQQQQLQQRQILLGPNTGLSGGMPGALPPLPGKM | – | binds

Continued, values first:

binding [1] | binding [2] | Molecule
– | binds | glucose-regulated protein 78 (GRP78), endogenous in MODE-K cells (from UniProt P20029 20-655)
binds | – | TOMM22, endogenous in NCM460 cells (from UniProt Q9NS69 1-142)
